# Experimental data reported in paper PMC4421817.
# Protein sequences, listed by entry. Tags and fused reporters are not part of them.
# UniProt P31153: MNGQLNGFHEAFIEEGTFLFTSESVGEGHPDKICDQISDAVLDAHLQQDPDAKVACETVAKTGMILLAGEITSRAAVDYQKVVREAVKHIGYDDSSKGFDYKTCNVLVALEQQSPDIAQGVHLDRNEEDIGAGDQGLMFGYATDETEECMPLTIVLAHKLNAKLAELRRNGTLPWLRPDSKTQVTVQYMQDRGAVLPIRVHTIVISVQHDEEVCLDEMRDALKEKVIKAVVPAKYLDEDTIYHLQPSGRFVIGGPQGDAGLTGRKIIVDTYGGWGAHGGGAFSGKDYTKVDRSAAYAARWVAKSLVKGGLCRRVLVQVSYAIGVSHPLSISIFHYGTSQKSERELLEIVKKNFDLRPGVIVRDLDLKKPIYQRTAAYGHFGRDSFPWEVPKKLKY
# UniProt Q5T4S7: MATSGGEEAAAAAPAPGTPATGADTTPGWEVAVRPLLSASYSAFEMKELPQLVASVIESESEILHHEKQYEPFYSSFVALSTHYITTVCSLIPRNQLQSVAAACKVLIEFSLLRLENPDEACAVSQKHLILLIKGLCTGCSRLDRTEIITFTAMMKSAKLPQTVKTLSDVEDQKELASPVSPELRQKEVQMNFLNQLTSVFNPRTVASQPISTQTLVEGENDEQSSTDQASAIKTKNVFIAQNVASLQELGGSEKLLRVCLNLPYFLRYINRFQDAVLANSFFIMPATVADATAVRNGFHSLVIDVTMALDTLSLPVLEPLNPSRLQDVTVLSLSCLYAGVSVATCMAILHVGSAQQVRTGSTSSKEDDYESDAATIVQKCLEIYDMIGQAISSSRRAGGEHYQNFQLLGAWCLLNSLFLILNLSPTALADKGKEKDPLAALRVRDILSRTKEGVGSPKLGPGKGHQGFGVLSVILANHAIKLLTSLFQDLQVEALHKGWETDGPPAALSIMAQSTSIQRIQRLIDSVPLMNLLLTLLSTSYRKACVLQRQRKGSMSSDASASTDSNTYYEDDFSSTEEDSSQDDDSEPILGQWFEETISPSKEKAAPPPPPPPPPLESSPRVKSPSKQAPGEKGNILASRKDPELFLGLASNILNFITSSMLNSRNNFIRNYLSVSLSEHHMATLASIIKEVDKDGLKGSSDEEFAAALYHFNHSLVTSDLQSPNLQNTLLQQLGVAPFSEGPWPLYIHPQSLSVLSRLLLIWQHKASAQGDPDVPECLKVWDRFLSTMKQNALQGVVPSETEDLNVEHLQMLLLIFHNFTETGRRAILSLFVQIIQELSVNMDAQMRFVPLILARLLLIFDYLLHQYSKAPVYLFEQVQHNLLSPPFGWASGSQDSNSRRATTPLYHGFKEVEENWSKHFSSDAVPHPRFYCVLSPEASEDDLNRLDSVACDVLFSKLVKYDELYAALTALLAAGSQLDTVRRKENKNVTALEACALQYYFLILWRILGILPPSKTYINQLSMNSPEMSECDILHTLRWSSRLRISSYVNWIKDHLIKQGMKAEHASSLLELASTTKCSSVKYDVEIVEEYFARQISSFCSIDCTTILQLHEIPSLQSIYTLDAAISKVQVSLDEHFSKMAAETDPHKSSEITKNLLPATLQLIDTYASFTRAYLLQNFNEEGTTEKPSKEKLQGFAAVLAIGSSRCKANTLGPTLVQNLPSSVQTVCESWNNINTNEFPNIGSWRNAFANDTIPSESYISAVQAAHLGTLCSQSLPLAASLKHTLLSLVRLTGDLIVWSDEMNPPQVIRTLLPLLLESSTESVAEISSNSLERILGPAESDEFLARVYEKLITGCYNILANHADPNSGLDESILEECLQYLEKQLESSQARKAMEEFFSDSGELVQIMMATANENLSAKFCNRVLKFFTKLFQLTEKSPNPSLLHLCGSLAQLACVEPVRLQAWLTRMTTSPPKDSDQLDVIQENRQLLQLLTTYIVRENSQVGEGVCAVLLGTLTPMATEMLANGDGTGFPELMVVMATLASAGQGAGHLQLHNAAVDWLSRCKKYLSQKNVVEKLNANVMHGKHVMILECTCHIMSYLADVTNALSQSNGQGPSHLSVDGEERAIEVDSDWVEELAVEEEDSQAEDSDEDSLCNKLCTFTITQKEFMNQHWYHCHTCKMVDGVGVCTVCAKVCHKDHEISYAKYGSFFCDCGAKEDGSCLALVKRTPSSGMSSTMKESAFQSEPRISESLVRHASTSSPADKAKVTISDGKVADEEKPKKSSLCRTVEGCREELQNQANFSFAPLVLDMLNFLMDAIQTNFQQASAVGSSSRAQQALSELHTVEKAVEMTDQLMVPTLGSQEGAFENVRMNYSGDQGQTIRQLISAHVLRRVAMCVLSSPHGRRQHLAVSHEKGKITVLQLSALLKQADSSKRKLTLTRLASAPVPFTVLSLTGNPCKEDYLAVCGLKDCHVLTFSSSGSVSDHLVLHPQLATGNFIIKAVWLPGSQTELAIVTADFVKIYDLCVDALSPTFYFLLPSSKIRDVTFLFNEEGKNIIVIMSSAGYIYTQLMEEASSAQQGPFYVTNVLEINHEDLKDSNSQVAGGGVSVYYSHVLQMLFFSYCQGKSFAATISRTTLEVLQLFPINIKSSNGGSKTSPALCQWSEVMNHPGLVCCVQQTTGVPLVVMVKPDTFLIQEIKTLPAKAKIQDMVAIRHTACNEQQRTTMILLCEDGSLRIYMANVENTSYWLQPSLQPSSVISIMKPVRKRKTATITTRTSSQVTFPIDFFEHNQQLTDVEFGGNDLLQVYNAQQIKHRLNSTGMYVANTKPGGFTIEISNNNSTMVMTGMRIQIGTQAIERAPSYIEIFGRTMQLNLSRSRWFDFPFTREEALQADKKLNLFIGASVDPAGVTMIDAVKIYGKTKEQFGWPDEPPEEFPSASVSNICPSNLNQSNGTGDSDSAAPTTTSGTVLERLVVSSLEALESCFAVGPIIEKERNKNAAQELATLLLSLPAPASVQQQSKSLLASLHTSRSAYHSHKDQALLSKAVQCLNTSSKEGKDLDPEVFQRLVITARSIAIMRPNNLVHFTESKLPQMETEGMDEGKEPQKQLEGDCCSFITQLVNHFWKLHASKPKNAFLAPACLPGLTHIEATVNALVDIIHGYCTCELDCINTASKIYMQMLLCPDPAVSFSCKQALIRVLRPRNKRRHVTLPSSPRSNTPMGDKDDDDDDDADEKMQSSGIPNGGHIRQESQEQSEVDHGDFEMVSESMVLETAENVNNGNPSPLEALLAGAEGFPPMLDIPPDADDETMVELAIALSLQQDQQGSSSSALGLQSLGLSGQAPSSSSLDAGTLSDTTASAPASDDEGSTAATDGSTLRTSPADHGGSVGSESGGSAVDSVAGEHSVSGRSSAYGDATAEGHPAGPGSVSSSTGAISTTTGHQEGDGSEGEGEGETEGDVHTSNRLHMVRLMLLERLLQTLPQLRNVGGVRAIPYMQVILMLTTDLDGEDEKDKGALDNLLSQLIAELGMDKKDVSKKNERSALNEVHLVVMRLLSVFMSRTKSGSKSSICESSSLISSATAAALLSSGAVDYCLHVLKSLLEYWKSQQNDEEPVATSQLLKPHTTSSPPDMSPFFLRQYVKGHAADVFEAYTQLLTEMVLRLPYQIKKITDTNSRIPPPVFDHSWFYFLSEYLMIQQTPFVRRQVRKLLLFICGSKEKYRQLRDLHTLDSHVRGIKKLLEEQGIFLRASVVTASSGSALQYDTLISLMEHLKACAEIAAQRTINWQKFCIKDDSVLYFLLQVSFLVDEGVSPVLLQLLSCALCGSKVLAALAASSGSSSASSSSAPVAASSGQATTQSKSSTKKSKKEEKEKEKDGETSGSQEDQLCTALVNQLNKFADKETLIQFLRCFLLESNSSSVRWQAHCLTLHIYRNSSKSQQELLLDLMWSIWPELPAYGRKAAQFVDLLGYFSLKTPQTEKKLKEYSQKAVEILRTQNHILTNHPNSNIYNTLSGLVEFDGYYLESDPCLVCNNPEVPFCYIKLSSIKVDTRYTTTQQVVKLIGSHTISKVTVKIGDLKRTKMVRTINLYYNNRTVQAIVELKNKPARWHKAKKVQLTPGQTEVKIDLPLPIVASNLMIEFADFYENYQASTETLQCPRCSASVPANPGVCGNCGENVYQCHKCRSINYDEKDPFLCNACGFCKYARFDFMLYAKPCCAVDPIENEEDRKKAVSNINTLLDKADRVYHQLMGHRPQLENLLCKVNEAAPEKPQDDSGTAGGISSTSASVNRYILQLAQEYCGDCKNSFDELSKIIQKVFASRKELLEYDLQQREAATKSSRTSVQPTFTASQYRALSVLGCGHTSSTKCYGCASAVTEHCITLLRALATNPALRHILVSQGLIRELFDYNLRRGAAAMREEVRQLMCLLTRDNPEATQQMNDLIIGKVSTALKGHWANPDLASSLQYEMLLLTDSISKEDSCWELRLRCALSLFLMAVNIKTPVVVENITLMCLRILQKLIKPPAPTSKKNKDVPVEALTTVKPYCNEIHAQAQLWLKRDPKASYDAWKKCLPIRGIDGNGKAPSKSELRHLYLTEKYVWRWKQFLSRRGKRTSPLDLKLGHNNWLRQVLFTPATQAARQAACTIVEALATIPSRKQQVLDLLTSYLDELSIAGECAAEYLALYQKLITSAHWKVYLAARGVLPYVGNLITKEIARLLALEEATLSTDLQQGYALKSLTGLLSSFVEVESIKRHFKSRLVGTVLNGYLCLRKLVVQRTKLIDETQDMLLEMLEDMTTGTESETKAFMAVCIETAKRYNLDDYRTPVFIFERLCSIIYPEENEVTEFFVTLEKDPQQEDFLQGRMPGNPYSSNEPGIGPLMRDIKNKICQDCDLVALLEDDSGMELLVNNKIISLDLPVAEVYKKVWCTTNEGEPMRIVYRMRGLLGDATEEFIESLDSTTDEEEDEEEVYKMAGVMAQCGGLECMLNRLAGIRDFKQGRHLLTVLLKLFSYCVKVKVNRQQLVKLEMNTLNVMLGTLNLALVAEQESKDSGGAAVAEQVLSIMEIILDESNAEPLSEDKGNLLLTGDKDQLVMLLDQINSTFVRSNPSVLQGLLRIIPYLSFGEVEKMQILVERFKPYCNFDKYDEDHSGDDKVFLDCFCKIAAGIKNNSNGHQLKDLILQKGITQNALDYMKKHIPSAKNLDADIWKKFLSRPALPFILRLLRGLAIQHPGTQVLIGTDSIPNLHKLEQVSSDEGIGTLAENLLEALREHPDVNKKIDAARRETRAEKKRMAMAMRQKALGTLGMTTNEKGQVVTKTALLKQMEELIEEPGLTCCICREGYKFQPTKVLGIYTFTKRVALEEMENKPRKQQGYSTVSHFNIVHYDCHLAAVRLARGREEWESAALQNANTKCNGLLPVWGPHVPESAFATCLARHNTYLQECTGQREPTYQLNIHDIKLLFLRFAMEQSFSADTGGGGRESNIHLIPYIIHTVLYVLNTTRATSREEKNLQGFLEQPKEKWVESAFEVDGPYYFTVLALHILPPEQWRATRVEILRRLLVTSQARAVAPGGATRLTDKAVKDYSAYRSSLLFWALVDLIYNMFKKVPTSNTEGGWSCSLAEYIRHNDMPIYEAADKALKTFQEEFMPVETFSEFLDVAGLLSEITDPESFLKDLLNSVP
# Biological target: streptavidin-binding protein and flag-tagged MAT IIα (methionine adenosyltransferase IIα) (human) (UniProt P31153)
# Assay: affinity purification with mass spectrometry; tandem affinity purification of streptavidin-binding protein and flag-tagged MAT IIα from a HEK293-derived stable cell line cultured upon folate deprivation; partners identified by MS
substance,measurement,value
UBR4 (ubiquitin protein ligase E3 component n-recognin 4) (from UniProt Q5T4S7 1-5183) (enzyme),binding,binds

# Results are given in words; binding and its absence hold for the method and conditions named. Binding seen in cells or lysates may run through a third protein. Here binding means that the protein was enriched with, or labelled near, the bait; the list need not be complete.
